# According to PubChem BioAssay AID445 (National Center for Advancing Translational Sciences (NCATS), 2006):
# Values joined by “and” are separate entries in the source; they are usually repeats but may differ in a detail not shown here. Identical values can stand only once. The list shows a part of the results. These are further read-outs of the screen, such as a control signal, another cell line or another target. No call is given for them. Most of these compounds were active or inconclusive in the main read-out, so they are no random draw. Words in brackets tell the shape of the fitted curve; partial curves, single points and poor fits give uncertain potencies.
# Test: IkB Signaling
# Details: ABC-DLBCL IkBa-CBG/CBR dual luciferase ratio (green luciferase fused to IkBa over red control in OCI-Ly3 lymphoma cells), 4 h
# Summary of the method: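 Curves were fitted separately to fusion (green), unfused (red) and ratio luminescence, then classed by r2, magnitude and activity. Cells: OCI-Ly3, 4 h compound plus doxycycline at 37C; 10 uM MG-132 defined full response.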
# [1] = measured here: control luc red channel unless noted
compound,measurement,setting,value
O=C(CSc1nnc(CNc2ccc(F)cc2)n1Cc1ccccc1)NCc1ccco1,AC50,[1],"20 µM [falling, single point]"
Cc1ccc(NC(=O)Cn2nnc(-c3nc(-c4ccncc4)no3)c2N)c(C)c1,AC50,[1],"39.8 µM [rising, partial curve]"
COc1ccccc1NC(=O)C1=C(C)Nc2nc(SCc3ccc(Cl)cc3)nn2C1c1ccccc1Cl (configuration not stated),AC50,[1],"3.16 µM [falling, single point]"
CC(NC(=O)C1CCN(C(=O)c2ccc(-n3ccc4ccccc43)s2)CC1)c1ccccc1 (configuration not stated),AC50,[1],"3.16 µM [falling, partial curve]"
CCOC(=O)C1CCN(C(=O)CN2c3ccc(C(C)C)cc3-c3ccccc3S2(=O)=O)CC1,AC50,[1],"25.1 µM [falling, partial curve]"
CC1CCN(C(=O)c2cc3c(=O)n(C)c4ccccc4c3s2)CC1,AC50,[1],"6.31 µM [falling, partial curve]"
CCOC(=O)c1c(NC(C)=O)c2c3c(sc2n1Cc1ccc(Cl)cc1)CCCC3,AC50,[1],"10 µM [falling, partial curve]"
COc1cc(C2NC(=O)N(C)C3=C2C(=O)N(c2cccc(Cl)c2)C3)ccc1O (configuration not stated),AC50,[1],"39.8 µM [falling, single point]"
COc1cccc(-n2c(SCC(=O)Nc3cccc(Cl)c3)nc3c(oc4ccccc43)c2=O)c1,AC50,[1],"0.0794 µM [falling, full curve]"
COc1cccc(Cn2c(=O)cnc3cncnc32)c1,AC50,[1],"3.16 µM [rising, partial curve] [measured here: IkB-luc green channel]"
CS(=O)(=O)c1oc(-c2ccc(F)cc2)nc1S(=O)(=O)c1ccc(Cl)cc1,AC50,[1],"2.51 µM [falling, full curve]"
O=C(NCc1ccc(F)cc1)C1CCCN(c2ncnc3onc(-c4ccc(F)cc4)c23)C1 (configuration not stated),AC50,[1],"25.1 µM [falling, single point]"
N#C/C(=C(/O)COC(=O)CCCNC(=O)c1ccc(Cl)cc1)c1nc2ccccc2[nH]1,AC50,measured here: IkB-luc green channel,"31.6 µM [rising, single point]"
same,AC50,measured here: control luc red channel,"12.6 µM [falling, partial curve]"
COc1ccc(Cl)cc1NC(=O)CSC1=Nc2ccccc2C2=NC(CC(=O)NC3CCCCC3)C(=O)N12 (configuration not stated),AC50,[1],"25.1 µM [falling, partial curve]"
COc1ccc(C(C)(C)C)cc1NC(=O)Nc1ccc2c(c1)OCO2,AC50,[1],"12.6 µM [falling, partial curve]"
CCOC(=O)c1cc2sccc2n1CC(=O)N1CCCc2ccccc21,AC50,[1],"25.1 µM [falling, single point] [measured here: IkB-luc green channel]"
COc1cccc(CNc2nccn(-c3cc(C)cc(C)c3)c2=O)c1,AC50,[1],"39.8 µM [falling, partial curve]"
COc1ccc(NC(=O)Cn2c(=O)n(Cc3ccco3)c(=O)c3cc(OC)c(OC)cc32)cc1,AC50,[1],"10 µM [falling, partial curve]"
CCCCN(CCCNC(=O)c1ccc(Sc2ccc(Cl)cc2)c(NC(C)=O)c1)c1ccccc1,AC50,[1],"10 µM [falling, partial curve]"
Cc1cc2c(cc1S(=O)(=O)CCC(=O)N1CCCC(C)C1)OCC(=O)N2 (configuration not stated),AC50,[1],"39.8 µM [falling, single point]"
Cc1cc(NC(=O)COc2cccc3cccnc23)no1,AC50,[1],"12.6 µM [falling, partial curve]"
COCCn1c(CCC(=O)Nc2ccc(C)c(Cl)c2)nc2cccnc21,AC50,[1],"39.8 µM [falling, single point]"
Clc1ccc2nc(NCc3ccccc3)c3nncn3c2c1,AC50,[1],"3.98 µM [rising, partial curve]"
CCSc1ncc(Cl)c(C(=O)Nc2ccc(S(=O)(=O)N3CCC(C)CC3)cc2)n1,AC50,[1],"0.631 µM [falling, full curve, poor fit]"
Cc1c(Cl)cccc1NC(=O)Cn1cc(C(=O)C2CCCCC2)c2ccccc21,AC50,[1],"3.16 µM [falling, full curve]"
Cn1c(=O)c2c(nc(NCc3ccco3)n2C/C=C/c2ccccc2)n(C)c1=O,AC50,[1],"3.16 µM [falling, full curve, poor fit]"
Cc1cccc(CNC(=O)C(=O)Nc2ccccc2C)c1,AC50,[1],"20 µM [falling, single point]"
Fc1ccccc1-n1ncc2c1ncn1nc(-c3ccccc3Cl)nc21,AC50,[1],"3.98 µM [falling, partial curve]"
CC1CCCCN1CCCNC(=O)c1[nH]c2ccccc2c1Sc1ccc(Cl)cc1 (configuration not stated),AC50,[1],"6.31 µM [falling, partial curve]"
COc1ccccc1CNC(=O)CCC1N=C2c3ccccc3N=C(SCC(N)=O)N2C1=O (configuration not stated),AC50,[1],"1.58 µM [rising, full curve, poor fit]"
Cc1ccc(CNC(=O)c2ccc(CSCc3ccccc3Cl)o2)cc1,AC50,[1],"25.1 µM [falling, single point]"
Cc1ccc(S(=O)(=O)NCC(c2ccc(N(C)C)cc2)N2CCc3ccccc32)cc1C (configuration not stated),AC50,[1],"12.6 µM [falling, single point]"
COC(=O)Cc1c(C)c2cc3c(c(C)c2oc1=O)OCN(CCc1ccccc1F)C3,AC50,[1],"25.1 µM [falling, single point]"
Cc1ccc(NC(=O)c2c(NC(=O)Cc3ccccc3)sc3c2CCC3)cc1,AC50,[1],"1.58 µM [falling, partial curve]"
CCN1C(=O)c2ccccc2Sc2ccc(NC(=O)Nc3ccccc3OC)cc21,AC50,[1],"25.1 µM [falling, partial curve]"
CC(=O)Nc1coc2ccc(Br)cc12,AC50,[1],"10 µM [falling, partial curve]"
CC1CCN(C(c2ccc(F)cc2)c2sc3nc(-c4ccco4)nn3c2O)CC1 (configuration not stated),AC50,[1],"39.8 µM [falling, single point]"
CCOc1ccc(-c2cc(CCCC(=O)NCCCOC)no2)cc1,AC50,[1],"12.6 µM [falling, partial curve]"
COc1ccccc1NC(=O)CSc1nnc(COc2ccc(Cl)cc2)n1Cc1ccco1,AC50,[1],"6.31 µM [falling, partial curve]"
CCc1ccc(-n2c(N3CCN(c4ccc(F)cc4)CC3)nc3ccccc3c2=O)cc1,AC50,[1],"10 µM [falling, partial curve]"
CSc1ccc(-c2c(C#N)c(N)nc3c2CCCC3)cc1,AC50,[1],"25.1 µM [falling, partial curve]"
CCCCOc1ccc(-c2c(C#N)c(N)nc(SCC(N)=O)c2C#N)cc1,AC50,[1],"25.1 µM [falling, partial curve]"
COc1ccc(NC(=O)C(NC(=O)/C=C\c2ccc3c(c2)OCO3)c2ccc(C)cc2)cc1 (configuration not stated),AC50,[1],"1.26 µM [rising, full curve, poor fit]"
CCOC(=O)c1c(NC(=O)CN2CCCCC2)sc2c1CCCC2O (configuration not stated),AC50,[1],"31.6 µM [falling, partial curve]"
Cc1noc(C)c1S(=O)(=O)N(CC(=O)NCc1ccccc1)c1ccc(C(C)C)cc1,AC50,[1],"15.8 µM [falling, partial curve, poor fit]"
COc1ccc(-c2nc(SCC(=O)NC3CCCC3)c(-c3ccc(F)cc3)[nH]2)cc1OC,AC50,[1],"20 µM [falling, partial curve]"
COc1ccc(NC(=O)Cn2c(=O)c3cccn3c3ccccc32)cc1,AC50,[1],"12.6 µM [falling, partial curve]"
CCCCN(C)S(=O)(=O)c1ccc(C(=O)Nc2sc3c(c2C(=O)OCC)CCN(C(C)C)C3)cc1,AC50,[1],"31.6 µM [falling, single point]"
CCSc1nc(-c2ccccc2)nc2c1Cc1c(CO)cnc(C)c1O2,AC50,[1],"7.94 µM [rising, single point]"
CCOC(=O)C1CCN(C(=O)C2CCN(S(=O)(=O)c3c(C)noc3/C=C/c3ccc(C)cc3)CC2)CC1,AC50,[1],"0.00631 µM [falling, full curve, poor fit]"
CC(=O)Nc1nc(COc2ccccc2)cs1,AC50,[1],"7.94 µM [falling, partial curve]"
CCCC1=Nc2cc(C(=O)NCc3ccccc3)ccc2Sc2ccccc21,AC50,[1],"6.31 µM [rising, single point] [measured here: IkB-luc green channel]"
CC/C(=C(\c1ccccc1)c1ccc(OCCN(C)C)cc1)c1ccccc1,AC50,[1],"39.8 µM [falling, partial curve] and 15.8 µM [falling, partial curve]"
COc1ccc(OC)c(NC(=O)CSc2nnnn2-c2ccc3c(c2)OCO3)c1,AC50,[1],"3.16 µM [falling, full curve, poor fit]"
CCc1oc2ccccc2c1C(=O)c1cc(Br)c(O)c(Br)c1,AC50,[1],"12.6 µM [falling, partial curve]"
Cc1cccc(C(=O)N2CCc3cc(CNC(=O)c4ccco4)ccc32)c1,AC50,[1],"31.6 µM [falling, partial curve]"
COc1ccccc1CNc1nccn(-c2ccc(F)cc2)c1=O,AC50,[1],"10 µM [falling, partial curve]"
COC(=O)CN1C(=O)C(O)(c2c(C)[nH]c3ccccc23)c2ccccc21 (configuration not stated),AC50,[1],"7.94 µM [rising, partial curve]"
Cc1csc2nc(COc3ccc(NC(=O)c4ccccc4F)cc3)cc(=O)n12,AC50,[1],"39.8 µM [falling, single point]"
O=C(CSC1=Nc2ccccc2C2=NC(Cc3ccccc3)C(=O)N12)Nc1cccc(Cl)c1 (configuration not stated),AC50,[1],"39.8 µM [falling, single point]"
CCOC(=O)c1c(-c2ccccc2)oc2ccc(NS(=O)(=O)c3ccc(C)cc3)cc12,AC50,[1],"39.8 µM [falling, single point]"
